{
  "source": "patent US20040186052A1",
  "about": "“Cytomodulating peptides and methods for treating neurological disorders” (priority 2002, published 2004)",
  "origin": "cited, not measured here",
  "test_system": "dopaminergic neurons in the substantia nigra",
  "settings": "MPTP model; cited from earlier work",
  "note": "For at least one compound, name, drawing or mass did not settle the structure.",
  "data": [
    {"molecule": "CN(C)c1ccc(O)c2c1C[C@H]1C[C@H]3[C@H](N(C)C)C(O)=C(C(N)=O)C(=O)[C@@]3(O)C(O)=C1C2=O", "note": "[minocycline]", "values": [
      {"measurement": "nigrostriatal dopaminergic neuron death", "value": "prevents"}
    ]}
  ]
}
